Results on one molecule are retold here after patent US20030180295A1, “Angiocidin: a Cys-Ser-Val-Thr-Cys-Gly specific tumor cell adhesion receptor” (Philadelphia Health and Education Corporation, priority 1999, published 2003).

Chains of the proteins cited; added tags and fusions are not shown. Residues count along the entry.
UniProt P07996, residues 19-1170: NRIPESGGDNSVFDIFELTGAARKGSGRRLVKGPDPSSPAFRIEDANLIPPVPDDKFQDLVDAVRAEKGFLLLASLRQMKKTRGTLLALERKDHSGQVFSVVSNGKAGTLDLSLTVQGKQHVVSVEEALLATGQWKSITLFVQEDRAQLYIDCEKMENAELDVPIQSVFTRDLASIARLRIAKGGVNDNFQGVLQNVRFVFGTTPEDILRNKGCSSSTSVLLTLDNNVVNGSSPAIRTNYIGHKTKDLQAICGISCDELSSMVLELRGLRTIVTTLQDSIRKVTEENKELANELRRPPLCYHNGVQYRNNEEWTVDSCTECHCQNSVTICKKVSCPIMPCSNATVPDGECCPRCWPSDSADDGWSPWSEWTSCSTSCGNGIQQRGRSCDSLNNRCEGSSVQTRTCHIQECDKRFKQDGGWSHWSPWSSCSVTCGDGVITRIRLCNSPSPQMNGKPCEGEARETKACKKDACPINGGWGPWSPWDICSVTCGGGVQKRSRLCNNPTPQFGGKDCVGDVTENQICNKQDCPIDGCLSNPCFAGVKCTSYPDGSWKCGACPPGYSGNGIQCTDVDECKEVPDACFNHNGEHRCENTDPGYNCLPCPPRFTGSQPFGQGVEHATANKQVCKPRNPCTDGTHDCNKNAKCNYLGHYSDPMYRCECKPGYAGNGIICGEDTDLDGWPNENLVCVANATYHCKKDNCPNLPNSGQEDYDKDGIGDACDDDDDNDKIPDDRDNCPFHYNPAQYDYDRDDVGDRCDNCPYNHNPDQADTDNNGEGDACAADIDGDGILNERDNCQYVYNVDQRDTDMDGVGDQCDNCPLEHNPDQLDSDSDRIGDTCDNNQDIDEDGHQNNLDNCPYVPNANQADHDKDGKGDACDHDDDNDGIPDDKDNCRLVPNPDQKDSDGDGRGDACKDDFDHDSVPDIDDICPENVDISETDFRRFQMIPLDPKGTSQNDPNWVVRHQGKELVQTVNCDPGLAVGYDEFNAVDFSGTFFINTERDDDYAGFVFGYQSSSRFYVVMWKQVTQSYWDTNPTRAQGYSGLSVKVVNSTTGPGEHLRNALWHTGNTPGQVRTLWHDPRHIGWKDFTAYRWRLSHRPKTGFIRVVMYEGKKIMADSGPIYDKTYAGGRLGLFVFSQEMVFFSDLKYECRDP

These are yes or no findings as the source states them, for the method shown. Some entries that bind do so weakly or less than the wild type. Where a sequence is shown, tags or fusion partners need not be part of it. No end group written: not given here. *: point of attachment. Acm = CC(=O)NC*

Experiment [1] addresses Thrombospondin (TSP-1) (UniProt P07996). Kind of experiment: resonant mirror biosensor, peptide alone on immobilized TSP-1.
Experiment [2] shares this target. Kind of experiment: resonant mirror biosensor, immobilized TSP-1 (FIG. 10).

B1: Val-Cys(Acm)-His-Ser-Lys-Thr-Arg (SEQ ID NO: 9) (peptide)
peptide: VCHSKTR
modifications: Cys(Acm) at position 2
On to B1, for which the binding result with Thrombospondin (TSP-1) [1] and in the experiment with Thrombospondin (TSP-1) [2] was “binds” in each case.
